Experimental data reported in publication PMC8211825.
No constants are given. Whether binding was seen depends on the method and setting. Some entries that bind do so weakly or less than the wild type. Each block holds one substance with its values, some of them ahead of it.

Chains of the proteins cited; added tags and fusions are not shown. Lines headed by an entry give the natural chain unless they say otherwise; changes in a name come on top. A line that says so, or that is headed by a name, gives the form on record, which may keep a tag or linker. Residues count along the entry.
C1q-like domain of otolin-1 from human (A6NHN0, residues 338-473): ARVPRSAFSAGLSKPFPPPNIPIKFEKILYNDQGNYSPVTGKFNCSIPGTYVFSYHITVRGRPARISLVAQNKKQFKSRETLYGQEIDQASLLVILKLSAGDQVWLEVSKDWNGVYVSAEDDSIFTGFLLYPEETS
hOtolC1q D425A (A6NHN0, form named): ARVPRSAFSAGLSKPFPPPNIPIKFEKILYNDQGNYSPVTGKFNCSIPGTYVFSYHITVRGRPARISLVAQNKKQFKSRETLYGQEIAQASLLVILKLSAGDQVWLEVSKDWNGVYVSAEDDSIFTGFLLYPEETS
hOtolC1q E417A (A6NHN0, form named): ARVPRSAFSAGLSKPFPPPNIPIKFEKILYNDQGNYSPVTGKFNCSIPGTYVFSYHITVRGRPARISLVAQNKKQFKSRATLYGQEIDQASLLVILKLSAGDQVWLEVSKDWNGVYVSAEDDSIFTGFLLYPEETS
hOtolC1q E417A D425A (A6NHN0, form named): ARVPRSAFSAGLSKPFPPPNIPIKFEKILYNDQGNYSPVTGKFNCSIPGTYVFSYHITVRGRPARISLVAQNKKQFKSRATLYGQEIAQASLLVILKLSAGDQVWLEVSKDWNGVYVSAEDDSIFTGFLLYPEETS
hOtolC1q E470A (A6NHN0, form named): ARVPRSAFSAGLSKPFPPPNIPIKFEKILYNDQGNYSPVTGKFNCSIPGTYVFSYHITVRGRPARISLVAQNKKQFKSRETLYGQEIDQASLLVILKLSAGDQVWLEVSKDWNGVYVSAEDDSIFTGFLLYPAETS
C1q-like domain of otolin-1 from zebrafish (A5PN28, residues 351-488): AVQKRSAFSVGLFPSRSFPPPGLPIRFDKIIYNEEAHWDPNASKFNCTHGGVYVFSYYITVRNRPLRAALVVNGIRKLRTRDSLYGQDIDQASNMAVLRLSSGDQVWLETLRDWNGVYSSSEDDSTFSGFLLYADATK
dOtolC1q D432A (A5PN28, form named): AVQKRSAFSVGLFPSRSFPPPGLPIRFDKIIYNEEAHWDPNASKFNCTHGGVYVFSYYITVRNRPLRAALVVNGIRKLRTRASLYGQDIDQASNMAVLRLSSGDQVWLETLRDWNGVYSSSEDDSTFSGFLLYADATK

What was measured:
[1] = target: C1q-like domain of otolin-1 from human (human) (UniProt A6NHN0); assay: AUC; sedimentation velocity, c(s) analysis in SEDFIT; 1 mM EDTA (no Ca2+); 10 mM HEPES pH 7.0, 500 mM NaCl, 5% glycerol; 20 °C, 50,000 rpm; protein about 0.1, 0.25 and 0.5 mg/ml; self-association of the gC1q domain into trimers; both purified
[2] = target: C1q-like domain of otolin-1 from zebrafish (zebrafish (Danio rerio)) (UniProt A5PN28); assay: as above
[3] = target: dOtolC1q D432A (zebrafish (Danio rerio)) (UniProt A5PN28); assay: as above
[4] = target: dOtolC1q D432A (zebrafish (Danio rerio)) (UniProt A5PN28); assay: AUC; sedimentation velocity, c(s) analysis in SEDFIT; 10 mM CaCl2; 10 mM HEPES pH 7.0, 500 mM NaCl, 5% glycerol; 20 °C, 50,000 rpm; protein about 0.1, 0.25 and 0.5 mg/ml; self-association of the gC1q domain into trimers; both purified
hOtolC1q D425A (human) = hOtolC1q D425A (human) (UniProt A6NHN0); assay: as above
hOtolC1q E417A (human) = hOtolC1q E417A (human) (UniProt A6NHN0); assay: as above
[5] = target: hOtolC1q E417A D425A (human) (UniProt A6NHN0); assay: as above
hOtolC1q E470A (human) = hOtolC1q E470A (human) (UniProt A6NHN0); assay: AUC; sedimentation velocity, c(s) analysis in SEDFIT; 1 mM EDTA (no Ca2+); 10 mM HEPES pH 7.0, 500 mM NaCl, 5% glycerol; 20 °C, 50,000 rpm; protein about 0.1, 0.25 and 0.5 mg/ml; self-association of the gC1q domain into trimers; both purified

Substance: C1q-like domain of otolin-1 from zebrafish (from UniProt A5PN28 351-488) (domain or fragment)
- binding [2]: binds weakly

Substance: dOtolC1q D432A (from UniProt A5PN28 351-488) (domain or fragment)
- binding [3]: binds weakly
- binding [4]: binds weakly

Substance: hOtolC1q E417A D425A (from UniProt A6NHN0 338-473) (domain or fragment)
- binding [5]: binds

Substance: hOtolC1q E470A (from UniProt A6NHN0 338-473) (domain or fragment)
- binding (hOtolC1q E470A (human)): binds weakly

Further lines, results first:

- binding [1]: binds weakly
Substance: C1q-like domain of otolin-1 from human (from UniProt A6NHN0 338-473) (domain or fragment)

- binding (hOtolC1q D425A (human)): binds
Substance: hOtolC1q D425A (from UniProt A6NHN0 338-473) (domain or fragment)

- binding (hOtolC1q E417A (human)): binds
Substance: hOtolC1q E417A (from UniProt A6NHN0 338-473) (domain or fragment)
